Drawing on PubChem BioAssay AID1508615 (Milbrandt Lab, Department of Genetics, Washington …, 2020), this text covers NAD/ADPR ratio for 59 molecules.

Sequences of proteins named here, by UniProt entry; tags and fusion partners are left off. A change or cut given only in a name is not applied to a line headed by its entry.
UniProt Q6SZW1: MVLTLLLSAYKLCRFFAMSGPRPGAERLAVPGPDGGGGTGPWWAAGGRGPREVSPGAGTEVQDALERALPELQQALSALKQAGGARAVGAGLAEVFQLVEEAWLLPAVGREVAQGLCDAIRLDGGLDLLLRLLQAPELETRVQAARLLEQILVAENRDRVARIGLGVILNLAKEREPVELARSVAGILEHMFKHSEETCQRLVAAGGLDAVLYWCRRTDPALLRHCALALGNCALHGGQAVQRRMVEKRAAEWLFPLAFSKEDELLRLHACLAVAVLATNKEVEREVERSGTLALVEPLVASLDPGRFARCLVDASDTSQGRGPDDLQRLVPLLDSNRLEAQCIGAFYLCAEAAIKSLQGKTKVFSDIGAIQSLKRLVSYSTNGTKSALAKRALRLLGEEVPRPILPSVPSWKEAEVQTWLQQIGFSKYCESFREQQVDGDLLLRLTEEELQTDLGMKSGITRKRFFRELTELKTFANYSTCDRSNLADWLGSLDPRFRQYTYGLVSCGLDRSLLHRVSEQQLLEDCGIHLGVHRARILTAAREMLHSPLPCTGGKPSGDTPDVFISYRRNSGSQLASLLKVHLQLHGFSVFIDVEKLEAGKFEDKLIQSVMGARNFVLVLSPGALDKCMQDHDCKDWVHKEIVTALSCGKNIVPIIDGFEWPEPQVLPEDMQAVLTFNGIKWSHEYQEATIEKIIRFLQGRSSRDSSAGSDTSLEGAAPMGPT

Among all 1,600 compounds or so, about 20 (1%) were called active.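 Rule for the calls: active = ratio of uncleaved NAD to its breakdown product ADP-ribose above 4, meaning the enzyme was inhibited; inactive = the rest.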 The list shows a part of the results.

This experiment addresses NAD(+) hydrolase SARM1 (Homo sapiens) (UniProt Q6SZW1). Briefly: inhibition of SAM-TIR NAD hydrolysis to ADPR – cell lysate, HPLC readout, primary screen (AID 1508615).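 Note: substrate NAD at 5 µM with 60 min at 37 °C.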 The conditions noted are these: HEK293T SAM-TIR lysate, NAD/ADPR ratio by HPLC; at 5 µM; stronger effect = higher value.
For the molecule `CCN(c1ccccc1)c1nc(Cl)nc2c1cnn2C`, the NAD/ADPR ratio was inactive: 3.

Turning to `Nc1nc(=S)c2ncn(C3CCCC3)c2[nH]1`, the NAD/ADPR ratio was inactive: 3.

`C#CC1(N2CCCCC2)CCCCC1`: the NAD/ADPR ratio is inactive: 3.

For the molecule `C=CCNC(=S)N1CCN(c2ccccc2Cl)CC1`, the NAD/ADPR ratio was inactive: 3.

`Cc1csc(N=Nc2ccc(N(C)C)cc2)[n+]1[O-]`: the NAD/ADPR ratio is inactive: 3.

Consider `N#CC(c1ccccc1)C(C/C(=N/O)c1ccccc1)c1ccccc1` (centres undefined), for which the NAD/ADPR ratio was inactive: 3.

Consider `CC12CCC(C(NC(=S)NN)C1=O)C2(C)C` (centres undefined), for which the NAD/ADPR ratio was inactive: 3.

On to `Cc1cnc2c(N)cc(C)c(C)c2c1`, for which the NAD/ADPR ratio is inactive: 3.

Turning to `c1ccc(-n2c3ccccc3c3ccccc32)cc1`, the NAD/ADPR ratio is inactive: 3.

Turning to `CC(C)(C)c1ccc(OCC(=O)O)cc1`, the NAD/ADPR ratio was inactive: 3.

In the case of `Cc1cc2cc3n(c2nn1)N=C(Cl)CC3`, the NAD/ADPR ratio was inactive: 3.

Turning to `O=C(Nc1cccc([N+](=O)[O-])c1)c1ccc2ccccc2c1O`, the NAD/ADPR ratio is inactive: 3.

In the case of `c1cc2c3c(cccc3c1)NC1(CCC3(CC1)Nc1cccc4cccc(c14)N3)N2`, the NAD/ADPR ratio is inactive: 3.

For the molecule `N#CN=CN1CC=C(c2ccc(Cl)cc2)CC1`, the NAD/ADPR ratio was inactive: 3.

For `CCCCCn1cnc2c(=S)nc(N)[nH]c21`, the NAD/ADPR ratio was inactive: 3.

As for `COc1ccc(C2=NC(=O)NC2c2ccc(OC)cc2)cc1` (centres undefined), the NAD/ADPR ratio was inactive: 3.

Regarding `NCc1c(O)ccc2ccccc12`, the NAD/ADPR ratio is inactive: 3.

As for `O=C(Nc1ccc(Cl)cc1)c1cc2c(cc1O)[nH]c1ccccc12`, the NAD/ADPR ratio was inactive: 3.

As for `O=C1OCC/C1=C\NCCCCCCCCN/C=C1\CCOC1=O`, the NAD/ADPR ratio was inactive: 3.

For `CCCCOc1nc2c(c(=O)n(C)c(=O)n2C)n1C`, the NAD/ADPR ratio is inactive: 3.

`CCOc1ccc2sc(NS(=O)(=O)c3ccc(N)cc3)nc2c1`: the NAD/ADPR ratio is inactive: 3.

On to `O=C(O)c1nn(-c2ccccc2-c2n[nH]c(=O)[nH]c2=O)c(=O)[nH]c1=O`, for which the NAD/ADPR ratio is inactive: 3.

On to `S=C1SCN(CCc2ccccc2)CN1CCc1ccccc1`, for which the NAD/ADPR ratio was inactive: 3.

As for `O=[N+]([O-])c1cc([N+](=O)[O-])c2cccnc2c1O`, the NAD/ADPR ratio is inactive: 3.

Regarding `CN(C)S(=O)(=O)c1ccc(N)c([N+](=O)[O-])c1`, the NAD/ADPR ratio is inactive: 3.

For the molecule `[O-][n+]1ccc(CC(O)(C(F)(F)F)C(F)(F)F)cc1`, the NAD/ADPR ratio was inactive: 3.

For the molecule `Cc1nccnc1Sc1ccccc1`, the NAD/ADPR ratio was inactive: 3.

As for `COc1ccc2c(n1)Sc1nc3ccccc3nc1N2`, the NAD/ADPR ratio was inactive: 3.

Consider `CC(C)n1cnc2c(=S)nc[nH]c21`, for which the NAD/ADPR ratio was inactive: 3.

On to `Clc1ccc(/C=C/c2nc(Cl)c(-c3ccc(Cl)cc3)c(Cl)n2)cc1`, for which the NAD/ADPR ratio is inactive: 3.

As for `O=C(O)C1C2OC3C(OC(=O)C31)C2Br` (centres undefined), the NAD/ADPR ratio was inactive: 3.

For `C#CCSc1nnnn1-c1ccc(Br)c(C)c1`, the NAD/ADPR ratio was inactive: 3.

Turning to `Cc1ccn(C)c(=N)c1`, the NAD/ADPR ratio was inactive: 3.

As to `Cn1c(N)c(C(=O)/C=C/c2ccccc2)c(=O)[nH]c1=O`, the NAD/ADPR ratio was inactive: 3.

For the molecule `NC1=NC(c2ccc(Cl)cc2)N(c2ccc(S(N)(=O)=O)cc2)C(N)=N1` (centres undefined), the NAD/ADPR ratio was inactive: 3.

For the molecule `Oc1ccc2ccccc2c1N=Nc1ccc(F)cc1`, the NAD/ADPR ratio is inactive: 3.

With `Cc1nnc(-n2cccc2)s1`, the NAD/ADPR ratio is inactive: 3.

With `COc1cc2c(NCCCCCO)ncnc2c(OC)c1OC`, the NAD/ADPR ratio was inactive: 3.

`OC(c1cc(-c2ccc(Cl)cc2)nc2ccccc12)C1CCCCN1` (centres undefined): the NAD/ADPR ratio was inactive: 3.

Consider `NC(=O)c1ccccc1NC(=O)c1ccccc1Cl`, for which the NAD/ADPR ratio was inactive: 3.

On to `COc1ccc(Nc2cc(C)nc(N)n2)cc1`, for which the NAD/ADPR ratio was inactive: 3.

On to `CNc1ncnc2c1cnn2C1CCCCO1` (centres undefined), for which the NAD/ADPR ratio is inactive: 3.

As for `O=P(O)(O)c1cc(-c2ccccc2)oc1-c1ccccc1`, the NAD/ADPR ratio was inactive: 3.

With `Cc1nc(NCc2ccccc2)c2cc[nH]c2n1`, the NAD/ADPR ratio was inactive: 3.

For `COc1cc(C(=O)C(=O)c2cc(OC)c(O)c(OC)c2)cc(OC)c1O`, the NAD/ADPR ratio is inactive: 3.

`Cc1cc(O)c(C(C)C)cc1NC(=O)Nc1cccc2ccccc12`: the NAD/ADPR ratio was inactive: 3.

`COc1cc2c(cc1OC)[C@H]1C(=O)c3cc(OS(C)(=O)=O)c(OC)cc3[C@H]1N(C)C2=O`: the NAD/ADPR ratio is inactive: 3.

With `CCOc1ccc(NC(=O)Nc2cc(C(C)C)ccc2C)cc1`, the NAD/ADPR ratio is inactive: 3.

Take `N#Cc1nnn2c1nc(N)c1c(Cl)cccc12`: the NAD/ADPR ratio is inactive: 3.

Turning to `COc1cc(NC(C)=O)c2ncccc2c1Br`, the NAD/ADPR ratio is inactive: 3.

As for `O=C(Nc1ccc(F)cc1)OCCOc1ccc(Br)cc1`, the NAD/ADPR ratio is inactive: 3.

Consider `CC1(C)CCSC(/C=C/c2ccccc2)=N1`, for which the NAD/ADPR ratio is inactive: 3.

In the case of `Nc1nc(SCc2ccccc2)sc1C(=O)N1CCCCC1`, the NAD/ADPR ratio was inactive: 3.

Take `OCC1(CO)CC2(C1)CC(CO)(CO)C2`: the NAD/ADPR ratio was inactive: 3.

Consider `C/C(=N/O)C1CCC2C3CCC4C/C(=N/O)CCC4(C)C3C(C)(O)CC12C` (centres undefined), for which the NAD/ADPR ratio was inactive: 3.

With `CCOC(=O)C(=Cc1ccc(Br)cc1)C(=O)OCC`, the NAD/ADPR ratio is inactive: 3.

As to `CCOCCc1c(O)nc(SC)[nH]c1=O`, the NAD/ADPR ratio was inactive: 3.

Consider `Cn1c(=O)c2[nH]c(COc3ccc(C(C)(C)C)cc3)nc2n(C)c1=O`, for which the NAD/ADPR ratio was inactive: 3.

`COc1ccc2c(c1)C(=O)C1NC(=O)NC(=O)C1(Br)N2` (centres undefined): the NAD/ADPR ratio is inactive: 3.
